Patent CN117257935A
Results are given in words; binding and its absence hold for the method and conditions named. Some results given as binding are weak or reduced against the parent protein; the word gives no strength.

Chains of the proteins cited; added tags and fusions are not shown. Residues count along the entry.
UniProt Q08722, residues 19-139: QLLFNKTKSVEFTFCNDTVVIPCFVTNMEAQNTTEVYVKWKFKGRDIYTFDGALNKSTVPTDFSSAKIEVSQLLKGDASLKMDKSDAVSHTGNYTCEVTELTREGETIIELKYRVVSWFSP

Legend:
[1] = biological target: 人CD47(hCD47) antigen (human) (UniProt Q08722); experiment: BLI (ForteBio)
[2] = biological target: 猴CD47 on CHO-cynoCD47 cells (猴 (cyno)); experiment: flow cytometry on CHO-cynoCD47 cells

| Binder | binding [1] | binding [2] |
| --- | --- | --- |
| 7A11H11 (antibody, human IgG4, V domains shown) VH: QVQLVQPGAEVKKPGASVKLSCKASGSSFTSNWMNWVRQAPGQGLEWIGMIHPSDSETRLNQKFKDRATLTVDKSTSTAYMELSSPRSEDTAVYYCARGTTVVDAFAYWGQGTTVTVSS VL: DIVMTQSPDSLAVSLGERATMNCKSSQSLLNSRTRKNYLAWYQQKPGQPPKLLIYWASTRESGVPDRFSGSGSGTDFTLTISSLQAEDVAVYYCKQSYNLRTFGGGTKLEIK | binds | binds |
| 7A11H12 (antibody, human IgG4, V domains shown) VH: QVQLVQPGAEVKKPGASVKLSCKASGSSFTSNWMNWVRQAPGQGLEWIGMIHPSDSETRLNQKFKDRATLTVDKSTSTAYMELSSPRSEDTAVYYCARGTTVVDAFAYWGQGTTVTVSS VL: DIQMTQSPSSLSASVGDRVTMTCKSSQSLLNSRTRKNYLAWYQQKPGKAPKLLIYWASTRESGVPSRFSGSGSGTDFTLTISSLQPEDFATYYCKQSYNLRTFGGGTKLEIK | binds | binds |
| 7A11H14 (antibody, human IgG4 S228P, kappa, V domains shown) VH: QVQLVQPGAEVKKPGASVKLSCKASGSSFTSNWMNWVRQAPGQGLEWIGMIHPSDSETRLNQKFKDRATLTVDKSTSTAYMELSSPRSEDTAVYYCARGTTVVDAFAYWGQGTTVTVSS VL: DIVMTQSPDSLAVSLGERATMNCKSSQSLLNTRTRKNYLAWYQQKPGQPPKLLIYWASTRESGVPDRFSGSGSGTDFTLTISSLQAEDVAVYYCKQSYNLRTFGGGTKLEIKR | binds | binds |
| 7A11H15 (antibody, human IgG4, V domains shown) VH: QVQLVQPGAEVKKPGASVKLSCKASGSSFTSNWMNWVRQAPGQGLEWIGMIHPSDSETRLNQKFKDRATLTVDKSTSTAYMELSSPRSEDTAVYYCARGTTVVDAFAYWGQGTTVTVSS VL: EIVMTQSPPTLSLSPGERVTMSCKSSQSLLNSRTRKNYLAWYQQKPGQAPRLLIYWASTRESGIPARFSGSGSGTDFTLTISSLQPEDFAVYYCKQSYNLRTFGGGTKLEIK | binds | binds |
| 7A11H35 (antibody, human IgG4, V domains shown) VH: QVQLVQSGAEVKKPGSSVKVSCKASGSSFTSNWMNWVRQAPGQGLEWIGMIHPSDSETRLNQKFKDRVTITADKSTSTAYMELSSLRSEDTAVYYCARGTTVVDAFAYWGQGTTVTVSS VL: EIVMTQSPPTLSLSPGERVTMSCKSSQSLLNSRTRKNYLAWYQQKPGQAPRLLIYWASTRESGIPARFSGSGSGTDFTLTISSLQPEDFAVYYCKQSYNLRTFGGGTKLEIK | binds | binds |
| 7A11H22 (antibody, human IgG4, V domains shown) VH: QVQLVQSGAEVKKPGASVKVSCKASGSSFTSNWMNWVRQAPGQGLEWIGMIHPSDSETRLNQKFKDRATLTVDKSTSTAYMELSSLRSEDTAVYYCARGTTVVDAFAYWGQGTTVTVSS VL: DIQMTQSPSSLSASVGDRVTMTCKSSQSLLNSRTRKNYLAWYQQKPGKAPKLLIYWASTRESGVPSRFSGSGSGTDFTLTISSLQPEDFATYYCKQSYNLRTFGGGTKLEIK | binds | binds |
| 7A11H33 (antibody, human IgG4, V domains shown) VH: QVQLVQSGAEVKKPGSSVKVSCKASGSSFTSNWMNWVRQAPGQGLEWIGMIHPSDSETRLNQKFKDRVTITADKSTSTAYMELSSLRSEDTAVYYCARGTTVVDAFAYWGQGTTVTVSS VL: DIQMTQSPSSLSASVGDRVTMTCKSSQSLLNTRTRKNYLAWYQQKPGKAPKLLIYWASTRESGVPSRFSGSGSGTDFTLTISSLQPEDFATYYCKQSYNLRTFGGGTKLEIK | binds | binds |
| 7A11H42 (antibody, human IgG4, V domains shown) VH: QVQLVQSGAEVKKPGSSVKVSCKASGSSFTSNWMNWVRQAPGQGLEWIGMIHPSDSETRLNQKFQGRVTITADKSTSTAYMELSSLRSEDTAVYYCARGTTVVDAFAYWGQGTTVTVSS VL: DIQMTQSPSSLSASVGDRVTMTCKSSQSLLNSRTRKNYLAWYQQKPGKAPKLLIYWASTRESGVPSRFSGSGSGTDFTLTISSLQPEDFATYYCKQSYNLRTFGGGTKLEIK | binds | binds |
| 7A11H32 (antibody, human IgG4, V domains shown) VH: QVQLVQSGAEVKKPGSSVKVSCKASGSSFTSNWMNWVRQAPGQGLEWIGMIHPSDSETRLNQKFKDRVTITADKSTSTAYMELSSLRSEDTAVYYCARGTTVVDAFAYWGQGTTVTVSS VL: DIQMTQSPSSLSASVGDRVTMTCKSSQSLLNSRTRKNYLAWYQQKPGKAPKLLIYWASTRESGVPSRFSGSGSGTDFTLTISSLQPEDFATYYCKQSYNLRTFGGGTKLEIK | – | binds |
| 7A11H52 (antibody, human IgG4, V domains shown) VH: QVQLVQSGAEVKKPGSSVKVSCKASGGTFTSNWMNWVRQAPGQGLEWIGMIHPSDSETRLNQKFQGRVTITADKSTSTAYMELSSLRSEDTAVYYCARGTTVVDAFAYWGQGTTVTVSS VL: DIQMTQSPSSLSASVGDRVTMTCKSSQSLLNSRTRKNYLAWYQQKPGKAPKLLIYWASTRESGVPSRFSGSGSGTDFTLTISSLQPEDFATYYCKQSYNLRTFGGGTKLEIK | – | binds |
| 7A11H34 (antibody, human IgG4, V domains shown) VH: QVQLVQSGAEVKKPGSSVKVSCKASGSSFTSNWMNWVRQAPGQGLEWIGMIHPSDSETRLNQKFKDRVTITADKSTSTAYMELSSLRSEDTAVYYCARGTTVVDAFAYWGQGTTVTVSS VL: DIVMTQSPDSLAVSLGERATMNCKSSQSLLNTRTRKNYLAWYQQKPGQPPKLLIYWASTRESGVPDRFSGSGSGTDFTLTISSLQAEDVAVYYCKQSYNLRTFGGGTKLEIK | – | binds |
| 7A11H55 (antibody, human IgG4, V domains shown) VH: QVQLVQSGAEVKKPGSSVKVSCKASGGTFTSNWMNWVRQAPGQGLEWIGMIHPSDSETRLNQKFQGRVTITADKSTSTAYMELSSLRSEDTAVYYCARGTTVVDAFAYWGQGTTVTVSS VL: EIVMTQSPPTLSLSPGERVTMSCKSSQSLLNSRTRKNYLAWYQQKPGQAPRLLIYWASTRESGIPARFSGSGSGTDFTLTISSLQPEDFAVYYCKQSYNLRTFGGGTKLEIK | – | binds |
